These are yes or no findings as the source states them, for the method shown. For part of these data: Binding seen in cells or lysates may run through a third protein. Some results given as binding are weak or reduced against the parent protein; the word gives no strength. Where a sequence is shown, tags or fusion partners need not be part of it.

For experiment [1], the target named is T1, SHINY1 (SHI1), full length, fused with the DNA binding domain (BD) (Arabidopsis thaliana) (UniProt Q8W4B1).
T1 sequence: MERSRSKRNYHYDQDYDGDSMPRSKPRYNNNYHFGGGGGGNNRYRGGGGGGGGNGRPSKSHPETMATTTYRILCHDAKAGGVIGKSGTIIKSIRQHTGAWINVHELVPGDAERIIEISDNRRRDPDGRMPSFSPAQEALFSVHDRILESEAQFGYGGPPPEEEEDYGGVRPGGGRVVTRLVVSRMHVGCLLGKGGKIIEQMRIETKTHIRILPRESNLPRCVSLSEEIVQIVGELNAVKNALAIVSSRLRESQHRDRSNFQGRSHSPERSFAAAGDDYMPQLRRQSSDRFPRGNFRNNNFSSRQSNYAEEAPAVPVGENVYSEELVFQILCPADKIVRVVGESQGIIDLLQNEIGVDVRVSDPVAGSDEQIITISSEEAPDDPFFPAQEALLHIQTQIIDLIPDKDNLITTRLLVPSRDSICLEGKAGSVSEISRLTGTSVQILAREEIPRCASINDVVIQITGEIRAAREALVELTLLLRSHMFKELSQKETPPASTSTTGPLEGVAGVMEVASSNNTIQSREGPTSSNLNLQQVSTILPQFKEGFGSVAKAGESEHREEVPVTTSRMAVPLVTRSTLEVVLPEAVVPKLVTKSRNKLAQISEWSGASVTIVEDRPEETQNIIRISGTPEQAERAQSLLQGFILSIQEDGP
Nature of the experiment: two-hybrid; screen of an Arabidopsis prey cDNA library with the SHI1 bait in S. cerevisiae Y190; medium lacking tryptophan, leucine and histidine with 25 mM 3-amino-1,2,4-triazole; confirmed by beta-galactosidase assay.

In experiment [2] the target is T2, FRY2-c-TAP (Arabidopsis thaliana) (UniProt Q5YDB6).
T2 sequence: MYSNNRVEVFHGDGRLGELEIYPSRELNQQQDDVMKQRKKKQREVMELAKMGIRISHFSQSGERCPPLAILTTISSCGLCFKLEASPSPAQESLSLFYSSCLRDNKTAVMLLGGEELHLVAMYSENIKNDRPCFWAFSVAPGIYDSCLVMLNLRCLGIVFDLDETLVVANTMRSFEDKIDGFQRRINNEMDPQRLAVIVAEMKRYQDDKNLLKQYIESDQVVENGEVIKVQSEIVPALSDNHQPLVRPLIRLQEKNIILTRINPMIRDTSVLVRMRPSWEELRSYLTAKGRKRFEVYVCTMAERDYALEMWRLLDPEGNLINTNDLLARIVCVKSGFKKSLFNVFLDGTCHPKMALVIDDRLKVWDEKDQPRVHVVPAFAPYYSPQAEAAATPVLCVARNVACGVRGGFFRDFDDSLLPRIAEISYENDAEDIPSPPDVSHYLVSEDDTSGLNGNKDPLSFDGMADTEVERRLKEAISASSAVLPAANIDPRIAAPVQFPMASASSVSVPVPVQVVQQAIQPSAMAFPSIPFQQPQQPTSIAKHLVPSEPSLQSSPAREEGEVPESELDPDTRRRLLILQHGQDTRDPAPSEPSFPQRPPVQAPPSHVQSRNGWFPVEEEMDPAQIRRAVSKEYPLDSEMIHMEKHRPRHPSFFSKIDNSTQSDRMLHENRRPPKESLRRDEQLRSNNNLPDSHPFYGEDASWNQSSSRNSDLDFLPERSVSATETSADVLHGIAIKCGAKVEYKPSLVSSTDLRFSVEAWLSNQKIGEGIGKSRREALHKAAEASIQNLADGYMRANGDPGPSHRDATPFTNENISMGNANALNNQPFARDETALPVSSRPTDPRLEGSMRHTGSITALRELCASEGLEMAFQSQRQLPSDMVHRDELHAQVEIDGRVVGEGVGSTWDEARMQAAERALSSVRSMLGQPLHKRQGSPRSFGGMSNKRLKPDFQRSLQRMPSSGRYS
The experiment in a line: co-IP; proteins isolated from F1 seedlings of the cross of Flag-SHI1 and FRY2-cTAP transgenic Arabidopsis; both directions.

Experiment [3] has as its target T3, FLAG-SHI1 (Arabidopsis thaliana) (UniProt Q8W4B1).
T3 sequence: T1 sequence
The experiment is described as above.

In experiment [4] the target is T1, SHINY1 (SHI1), full length, fused with the DNA binding domain (BD) (Arabidopsis thaliana). Nature of the experiment: two-hybrid; directed tests and deletion analysis in Y190: SHI1 forms fused with the AD against full length FRY2-BD, FRY2 forms fused with the AD against full length SHI1-BD; growth on medium minus Trp, Leu and His with 3-AT and X-gal assay.

B1: FRY2/CPL1 533-967 (medium sized prey cDNA clone of the two-hybrid screen) (domain or fragment, UniProt Q5YDB6 533-967)
chain: QQPQQPTSIAKHLVPSEPSLQSSPAREEGEVPESELDPDTRRRLLILQHGQDTRDPAPSEPSFPQRPPVQAPPSHVQSRNGWFPVEEEMDPAQIRRAVSKEYPLDSEMIHMEKHRPRHPSFFSKIDNSTQSDRMLHENRRPPKESLRRDEQLRSNNNLPDSHPFYGEDASWNQSSSRNSDLDFLPERSVSATETSADVLHGIAIKCGAKVEYKPSLVSSTDLRFSVEAWLSNQKIGEGIGKSRREALHKAAEASIQNLADGYMRANGDPGPSHRDATPFTNENISMGNANALNNQPFARDETALPVSSRPTDPRLEGSMRHTGSITALRELCASEGLEMAFQSQRQLPSDMVHRDELHAQVEIDGRVVGEGVGSTWDEARMQAAERALSSVRSMLGQPLHKRQGSPRSFGGMSNKRLKPDFQRSLQRMPSSGRYS
B1: the binding result in experiment [1] is given as “binds”.

B2: FLAG-SHI1 (protein, UniProt Q8W4B1 1-652)
chain: T1 sequence
In the case of B2, the binding result in experiment [2] is reported as “binds”.

B3: FRY2/CPL1 666-967 (shortest prey cDNA clone of the two-hybrid screen) (domain or fragment, UniProt Q5YDB6 666-967)
chain: MLHENRRPPKESLRRDEQLRSNNNLPDSHPFYGEDASWNQSSSRNSDLDFLPERSVSATETSADVLHGIAIKCGAKVEYKPSLVSSTDLRFSVEAWLSNQKIGEGIGKSRREALHKAAEASIQNLADGYMRANGDPGPSHRDATPFTNENISMGNANALNNQPFARDETALPVSSRPTDPRLEGSMRHTGSITALRELCASEGLEMAFQSQRQLPSDMVHRDELHAQVEIDGRVVGEGVGSTWDEARMQAAERALSSVRSMLGQPLHKRQGSPRSFGGMSNKRLKPDFQRSLQRMPSSGRYS
Turning to B3, in experiment [1], the binding result is recorded as “binds”.

B4: FRY2-c-TAP (protein, UniProt Q5YDB6 1-967)
chain: T2 sequence
Take B4: in experiment [3], the binding result is on record as “binds”.

B5: FRY2/CPL1, full length, fused with the activation domain (AD) (protein, UniProt Q5YDB6 1-967)
chain: T2 sequence
As for B5, in experiment [4], the binding result was “binds”.

B6: FRY2/CPL1 476-967 (longest prey cDNA clone of the two-hybrid screen) (domain or fragment, UniProt Q5YDB6 476-967)
chain: AISASSAVLPAANIDPRIAAPVQFPMASASSVSVPVPVQVVQQAIQPSAMAFPSIPFQQPQQPTSIAKHLVPSEPSLQSSPAREEGEVPESELDPDTRRRLLILQHGQDTRDPAPSEPSFPQRPPVQAPPSHVQSRNGWFPVEEEMDPAQIRRAVSKEYPLDSEMIHMEKHRPRHPSFFSKIDNSTQSDRMLHENRRPPKESLRRDEQLRSNNNLPDSHPFYGEDASWNQSSSRNSDLDFLPERSVSATETSADVLHGIAIKCGAKVEYKPSLVSSTDLRFSVEAWLSNQKIGEGIGKSRREALHKAAEASIQNLADGYMRANGDPGPSHRDATPFTNENISMGNANALNNQPFARDETALPVSSRPTDPRLEGSMRHTGSITALRELCASEGLEMAFQSQRQLPSDMVHRDELHAQVEIDGRVVGEGVGSTWDEARMQAAERALSSVRSMLGQPLHKRQGSPRSFGGMSNKRLKPDFQRSLQRMPSSGRYS
For the molecule B6, in experiment [1], the binding entry is listed as “binds”.

(Values after publication PMC3708844 (2013).)
